Assay results taken from paper PMC4370569.
These are yes or no findings as the source states them, for the method shown. In cells and extracts the contact can be indirect. Some binding calls cover weakened binding; strength is not graded here. Where a sequence is shown, tags or fusion partners need not be part of it.

Target: T1, Fft3-TAP (S. pombe) (UniProt O42861)
T1 sequence: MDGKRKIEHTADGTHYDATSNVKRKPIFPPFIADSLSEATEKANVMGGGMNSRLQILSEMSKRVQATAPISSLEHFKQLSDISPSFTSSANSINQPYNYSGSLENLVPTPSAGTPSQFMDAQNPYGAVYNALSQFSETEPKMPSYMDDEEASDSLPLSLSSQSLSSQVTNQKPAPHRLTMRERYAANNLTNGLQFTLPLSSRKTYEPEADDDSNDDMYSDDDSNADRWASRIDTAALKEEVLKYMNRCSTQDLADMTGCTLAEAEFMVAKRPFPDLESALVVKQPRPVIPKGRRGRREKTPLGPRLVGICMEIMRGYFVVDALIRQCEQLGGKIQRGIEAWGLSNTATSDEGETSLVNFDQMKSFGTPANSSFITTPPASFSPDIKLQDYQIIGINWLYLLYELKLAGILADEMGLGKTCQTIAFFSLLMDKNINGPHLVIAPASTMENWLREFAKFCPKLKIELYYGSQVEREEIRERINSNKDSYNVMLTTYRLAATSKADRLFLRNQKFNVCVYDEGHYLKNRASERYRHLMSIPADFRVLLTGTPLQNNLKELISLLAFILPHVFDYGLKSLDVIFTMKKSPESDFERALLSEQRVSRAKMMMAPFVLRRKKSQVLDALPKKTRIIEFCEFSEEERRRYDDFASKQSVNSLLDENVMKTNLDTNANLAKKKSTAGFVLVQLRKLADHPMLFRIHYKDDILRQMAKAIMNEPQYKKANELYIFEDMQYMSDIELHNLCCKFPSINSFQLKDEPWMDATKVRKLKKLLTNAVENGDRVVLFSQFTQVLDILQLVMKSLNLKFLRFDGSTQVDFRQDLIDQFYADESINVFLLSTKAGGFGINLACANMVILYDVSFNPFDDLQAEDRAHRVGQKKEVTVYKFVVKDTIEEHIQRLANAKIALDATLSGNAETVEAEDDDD
Assay: co-IP; lysate of S. pombe strains (double-tagged Sfc4-Myc Fft3-TAP and single-tagged controls); lysis buffer 20 mM Tris pH7.5, 150mM NaCl, 3% glycerol, 0.05% Igepal, 0.5mM EDTA, 0.5 mM DTT; IgG beads 40 min at 4°C; five washes; blot with anti-myc, then anti-TAP

binding: binds
B1: Sfc4-Myc (protein, UniProt O74458 1-1006)
chain: MIQNGGNSYVDSNMNETQNDTTDNFDAEMQDLNGYISEIVDEARNVSEVDAKFLGDTSALQAEGLWSDEESDYEGSDDESNFSKTASRTEDDIANEEWEENLKAVAGFRKVRKGHKGRGRVSRADMLPSVEVQQMLSLANHLFAQEGNFDEAQKLAEEIVRIDNNVIAAWKMLGECHRQRGNGRVNIEKCLIAWMAAAHLKPKDHELWFTCAKLSESLEFWDQADYCYNRAVSAKPPNKSELKKYIWNRSVLNKEHGSLKKAAEGFKFLLQSSPYNASILKNLAEIYIKIHAPREILKQFEIAWKYFYQYPAPPIGNDIFDLPTLNLYAELLLLDHQWSNLIRLINRGVRWFRGRKSESFWDEFDDDREWDVDERRREFPNASEEHTNKEAYLLPHLFRTKLGIARLKTGELPEAELHFSVIKNLPPDYAWGMLYDIAKAYMDIERLDLALEYFVLICNHEPAQNIGLWYNMGVCYLELKEYEHAQQCMEAILIVDNSNTNALIKLAEINELQDNRDAALEIVTNIFEQRRNINELEREQSQNEDHEKNVGSQLFVGNQKVPQDKWEKRARISRSKEEARQFTIWKTEETQRRFHKLDILRQSLKKEENVSESLNEWLAIASELIDEFVSIKAFFPSEKKARARAGLLTRRTRYASLNDQLTSMINRLNDSLTRTKYGDLDLDTILRTGYFRNVSIDAWYQLFVEFSLRLTKVGSVQQAYDVLTTAMGAILFDQDTIKRQNLRWCMLACSMYARDPQGALTPLRWVFTTFQFRQDTYRLFSAVLSQGYECSRAFVDSANQKFLLRLIKLMDQLMSNSLVSGAATLVKNDDGLATVPTSYDPVLVLLYGHIMARNRSWIPAINYYSRAFAINPDCPITNLSLGLAYLHRAMQRLSDNRHYQILQGFTFLYRYYDLRVNEGLGEKQEALYNLGKAYHFIGLEHYAVKYYEAVLGLSPMSQGDKMTSSESTVSTTYDFGFEAAYNLRLIYICSGNIKLAFQISSKYLIF
